PubChem BioAssay AID602196 | INSERM, 2012

Assay: 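Knock-downs that protect lung cancer cells from cisplatin or sensitise them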
System: human A549 lung cancer cells
Knock-down reagent: siRNA pair against human genes
Timing: 48 h transfection before cisplatin; time from cisplatin to read-out not stated
Conditions: cisplatin at a dose killing half of control-siRNA cells; exact dose and duration not given
Read-out: 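Cisplatin cell death as a shift from the 50% death seen with control siRNA; siRNAs toxic or growth-blocking alone scored 0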
Reading the numbers: two-siRNA summed score (-2 to +2): higher = both siRNAs protect from cisplatin killing; -2 means both sensitise; mean protection from cisplatin (shift in death) and protection from cisplatin (shift in death), siRNA C and protection from cisplatin (shift in death), siRNA D: higher = protection from cisplatin killing
Rule for the call: 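Each siRNA scores 0 if harmful alone by LDH or WST-1, otherwise +1 if it reduces and -1 if it increases cisplatin killing; a gene is active when both siRNAs agree (sum +2 or -2)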
Meaning of the calls: active = both siRNAs shift cisplatin killing the same way; inactive = no consistent shift, or siRNA harmful alone
The deposit covers about 23,000 reagents; below is a part drawn at random. Of all reagents, 455 (2%) are marked active. 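Active includes both protection and sensitisation; some change values fall well beyond the stated -50 to +50 range.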 Not given: the amount of reagent.

no.	gene	two-siRNA summed score (-2 to +2)	mean protection from cisplatin (shift in death) (%)	protection from cisplatin (shift in death), siRNA C (%)	protection from cisplatin (shift in death), siRNA D (%)	activity call
1	DPH2	1	16.4	23	9.7	inactive
2	FAM133B	-1	-3.9	4.9	-12.7	inactive
3	MRPL4	1	18.6	10.3	26.9	inactive
4	NUP50	0	1.5	4.2	-1.2	inactive
5	NCBP2L	-1	-7.8	7.9	-23.4	inactive
6	PRAMEF7	0	27.9	22.2	33.6	inactive
7	DKFZp666G057	0	3	5.9	0.1	inactive
8	TAF9	1	16.2	16.5	15.9	inactive
9	PRPS1L1	0	14.4	11.1	17.7	inactive
10	CACNA2D1	0	-11.6	7.4	-30.6	inactive
11	LOC388806	0	1.3	6	-3.5	inactive
12	PRPH2	0	-8	-6.6	-9.4	inactive
13	LINC00938	1	7	22.3	-8.2	inactive
14	ARFGEF2	0	10.8	5.2	16.4	inactive
15	THPO	0	-7.1	-10.4	-3.8	inactive
16	LCN15	0	13.1	-2.7	28.8	inactive
17	LOC442521	0	2.4	-2.5	7.4	inactive
18	ALCAM	-1	-15.7	-6.5	-25	inactive
19	KLRB1	0	0.5	8.6	-7.6	inactive
20	SCN10A	0	-16.3	-28.4	-4.2	inactive
21	MRPS15	0	7.3	16.7	-2.1	inactive
22	RNF4	0	6.6	3.1	10.2	inactive
23	LOC440291	-1	-11.4	-4.8	-17.9	inactive

Targets listed so far whose target name starts with M or m:
gene	two-siRNA summed score (-2 to +2)	mean protection from cisplatin (shift in death) (%)	protection from cisplatin (shift in death), siRNA C (%)	protection from cisplatin (shift in death), siRNA D (%)	activity call
MRPL4	1	18.6	10.3	26.9	inactive
MRPS15	0	7.3	16.7	-2.1	inactive
